Laboratory results: publication PMC5730767

Chains of the proteins cited; added tags and fusions are not shown.
UniProt Q92538: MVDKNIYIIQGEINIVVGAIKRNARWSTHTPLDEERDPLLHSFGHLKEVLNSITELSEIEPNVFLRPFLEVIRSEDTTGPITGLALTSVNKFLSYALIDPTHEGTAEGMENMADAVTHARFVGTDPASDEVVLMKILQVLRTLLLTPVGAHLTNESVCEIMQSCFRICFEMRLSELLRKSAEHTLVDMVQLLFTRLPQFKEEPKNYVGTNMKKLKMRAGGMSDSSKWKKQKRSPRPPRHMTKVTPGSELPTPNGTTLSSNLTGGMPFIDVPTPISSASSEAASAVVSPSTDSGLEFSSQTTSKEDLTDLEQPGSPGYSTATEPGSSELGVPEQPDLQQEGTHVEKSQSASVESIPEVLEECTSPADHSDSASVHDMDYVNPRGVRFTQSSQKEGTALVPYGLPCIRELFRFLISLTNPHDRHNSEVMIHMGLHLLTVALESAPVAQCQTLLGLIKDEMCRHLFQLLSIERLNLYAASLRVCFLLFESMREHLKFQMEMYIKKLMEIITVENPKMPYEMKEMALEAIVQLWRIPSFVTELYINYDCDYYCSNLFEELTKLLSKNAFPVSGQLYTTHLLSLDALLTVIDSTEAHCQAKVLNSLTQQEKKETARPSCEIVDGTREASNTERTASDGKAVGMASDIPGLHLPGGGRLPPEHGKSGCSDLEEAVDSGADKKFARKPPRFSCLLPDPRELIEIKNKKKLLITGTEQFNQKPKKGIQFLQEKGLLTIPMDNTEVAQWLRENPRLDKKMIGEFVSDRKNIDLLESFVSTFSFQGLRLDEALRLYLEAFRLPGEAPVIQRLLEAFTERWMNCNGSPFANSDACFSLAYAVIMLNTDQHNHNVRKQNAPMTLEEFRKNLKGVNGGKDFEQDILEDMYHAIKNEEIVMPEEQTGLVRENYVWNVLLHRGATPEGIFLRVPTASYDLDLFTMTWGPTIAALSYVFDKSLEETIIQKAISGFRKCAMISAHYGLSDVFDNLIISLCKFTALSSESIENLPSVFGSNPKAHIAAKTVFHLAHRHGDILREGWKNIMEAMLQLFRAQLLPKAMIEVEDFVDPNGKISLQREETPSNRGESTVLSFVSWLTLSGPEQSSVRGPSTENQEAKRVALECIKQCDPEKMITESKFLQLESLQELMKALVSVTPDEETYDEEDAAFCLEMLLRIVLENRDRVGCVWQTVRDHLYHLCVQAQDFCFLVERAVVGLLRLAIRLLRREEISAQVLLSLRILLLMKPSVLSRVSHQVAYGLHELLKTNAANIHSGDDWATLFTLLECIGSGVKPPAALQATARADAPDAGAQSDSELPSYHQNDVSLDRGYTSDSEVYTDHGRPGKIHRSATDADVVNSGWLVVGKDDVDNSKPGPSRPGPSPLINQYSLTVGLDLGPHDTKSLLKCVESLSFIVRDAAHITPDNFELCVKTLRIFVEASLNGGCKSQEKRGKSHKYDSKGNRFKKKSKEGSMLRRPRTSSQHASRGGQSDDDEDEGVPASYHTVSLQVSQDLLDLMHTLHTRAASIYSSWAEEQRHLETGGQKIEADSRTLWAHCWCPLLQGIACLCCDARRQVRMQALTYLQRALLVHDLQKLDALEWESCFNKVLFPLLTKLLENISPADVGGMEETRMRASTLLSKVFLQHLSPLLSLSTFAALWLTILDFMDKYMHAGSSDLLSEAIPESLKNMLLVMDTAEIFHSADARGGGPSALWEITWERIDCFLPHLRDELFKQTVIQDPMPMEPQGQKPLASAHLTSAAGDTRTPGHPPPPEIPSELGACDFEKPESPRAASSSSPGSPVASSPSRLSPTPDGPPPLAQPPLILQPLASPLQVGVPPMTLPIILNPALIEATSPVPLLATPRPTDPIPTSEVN

T1: N-terminal FLAG-tagged viperin (wild type) (human) (UniProt Q8WXG1)
T1 sequence: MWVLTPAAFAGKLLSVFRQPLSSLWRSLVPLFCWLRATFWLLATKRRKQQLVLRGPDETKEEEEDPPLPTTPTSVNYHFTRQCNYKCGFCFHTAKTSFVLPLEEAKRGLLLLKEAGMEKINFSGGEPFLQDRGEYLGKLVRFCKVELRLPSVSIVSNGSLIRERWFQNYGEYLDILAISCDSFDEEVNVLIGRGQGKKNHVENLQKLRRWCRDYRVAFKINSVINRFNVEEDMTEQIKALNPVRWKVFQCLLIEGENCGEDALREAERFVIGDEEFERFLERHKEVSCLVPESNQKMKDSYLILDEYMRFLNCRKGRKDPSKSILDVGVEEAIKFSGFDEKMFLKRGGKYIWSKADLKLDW


Key:
[1] = biological target: T1, N-terminal FLAG-tagged viperin (wild type) (human); experiment: affinity purification with mass spectrometry
[2] = biological target: T1, N-terminal FLAG-tagged viperin (wild type) (human); experiment: affinity purification with mass spectrom

| binding [2] | Molecule | binding [1] |
| --- | --- | --- |
| – | Golgi brefeldin A-resistant guanine nucleotide exchange factor 1 (GBF1), endogenous in 293 FLP-IN T-Rex cells (from UniProt Q92538 1-1860) | binds |
| binds | RCN2 (ERC-55; ER Ca2+ binding protein, 55 kDa) (protein, UniProt Q14257 23-317) GKAEELHYPLGERRSDYDREALLGVQEDVDEYVKLGHEEQQKRLQAIIKKIDLDSDGFLTESELSSWIQMSFKHYAMQEAKQQFVEYDKNSDDTVTWDEYNIQMYDRVIDFDENTALDDAEEESFRKLHLKDKKRFEKANQDSGPGLSLEEFIAFEHPEEVDYMTEFVIQEALEEHDKNGDGFVSLEEFLGDYRWDPTANEDPEWILVEKDRFVNDYDKDNDGRLDPQELLPWVVPNNQGIAQEEALHLIDEMDLNGDKKLSEEEILENPDLFLTSEATDYGRQLHDDYFYHDEL | – |
| binds | ADP-ribosylation factor-like protein 1 (protein, UniProt P40616 1-181) MGGFFSSIFSSLFGTREMRILILGLDGAGKTTILYRLQVGEVVTTIPTIGFNVETVTYKNLKFQVWDLGGQTSIRPYWRCYYSNTDAVIYVVDSCDRDRIGISKSELVAMLEEEELRKAILVVFANKQDMEQAMTSSEMANSLGLPALKDRKWQIFKTSATKGTGLDEAMEWLVETLKSRQ | – |

Results are given in words; binding and its absence hold for the method and conditions named. Binding seen in cells or lysates may run through a third protein. A yes stands for co-enrichment or nearness to the bait. Other partners may have been found. Tags and fused reporters may be left off the sequences shown.
